In patent US20220177882A1, “CALCINEURIN INHIBITOR RESISTANT IMMUNE CELLS FOR USE IN ADOPTIVE CELL TRANSFER THERAPY” (UNIVERSITÄT BASEL, priority 2019, published 2022):
At least one structure is not confirmed: it was looked up by name or label, or the drawing left a doubt.

Key:
[1] = system: CD4 T cells; assay: Cyclosporin A / FK506 titration, CD25/CD69 expression of CD4 T cells activated for 48 h; format: cell-based, mice; conditions: miR1792tg vs wildtype CD4+ T cells, increasing concentrations (FIG. 11A,B)
[2] = system: CD8+ T cells; assay: Cyclosporin A / FK506 titration, CD25/CD69 expression of CD8+ T cells activated for 48 h; format: cell-based, mice; conditions: miR1792tg vs wildtype CD8+ T cells, increasing concentrations (FIG. 11C,D)

C=CC[C@@H]1/C=C(\C)C[C@H](C)C[C@H](OC)[C@H]2O[C@@](O)(C(=O)C(=O)N3CCCC[C@H]3C(=O)O[C@H](/C(C)=C/[C@@H]3CC[C@@H](O)[C@H](OC)C3)[C@H](C)[C@@H](O)CC1=O)[C@H](C)C[C@@H]2OC [FK506]
resistance to calcineurin inhibitor (CD25/CD69 expression) [1]: increased resistance
resistance to calcineurin inhibitor (CD25/CD69 expression) [2]: increased resistance
